Laboratory results as given in the supplement of paper PMC10849652.
This is one part of the list.

The chains behind the UniProt entries cited, without tags or fusion partners. Where a name states a change or a piece, a line headed by the entry shows the natural chain unless it says otherwise.
UniProt Q5T7N2: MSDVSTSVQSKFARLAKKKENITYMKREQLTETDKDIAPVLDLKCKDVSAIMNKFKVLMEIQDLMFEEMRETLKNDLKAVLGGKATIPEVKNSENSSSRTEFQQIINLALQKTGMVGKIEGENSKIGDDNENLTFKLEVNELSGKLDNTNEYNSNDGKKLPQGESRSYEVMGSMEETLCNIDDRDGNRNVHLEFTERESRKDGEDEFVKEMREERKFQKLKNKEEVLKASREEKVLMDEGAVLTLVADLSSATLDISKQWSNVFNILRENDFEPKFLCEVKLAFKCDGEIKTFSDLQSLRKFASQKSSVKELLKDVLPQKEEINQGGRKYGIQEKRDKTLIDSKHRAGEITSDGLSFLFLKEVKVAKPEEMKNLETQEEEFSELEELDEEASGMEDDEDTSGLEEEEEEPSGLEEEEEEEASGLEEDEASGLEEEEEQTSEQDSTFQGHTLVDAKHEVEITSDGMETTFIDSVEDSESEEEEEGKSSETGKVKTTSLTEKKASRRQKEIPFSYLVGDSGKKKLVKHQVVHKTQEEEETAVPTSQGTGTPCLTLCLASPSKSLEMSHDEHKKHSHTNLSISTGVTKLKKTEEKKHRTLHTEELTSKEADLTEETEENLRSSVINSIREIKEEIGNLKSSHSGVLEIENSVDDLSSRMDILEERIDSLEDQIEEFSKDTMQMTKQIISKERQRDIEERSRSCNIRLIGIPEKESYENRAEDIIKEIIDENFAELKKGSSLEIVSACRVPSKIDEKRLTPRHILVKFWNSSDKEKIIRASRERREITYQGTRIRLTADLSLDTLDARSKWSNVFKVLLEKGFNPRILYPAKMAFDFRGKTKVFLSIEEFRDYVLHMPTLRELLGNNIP
UniProt Q15048: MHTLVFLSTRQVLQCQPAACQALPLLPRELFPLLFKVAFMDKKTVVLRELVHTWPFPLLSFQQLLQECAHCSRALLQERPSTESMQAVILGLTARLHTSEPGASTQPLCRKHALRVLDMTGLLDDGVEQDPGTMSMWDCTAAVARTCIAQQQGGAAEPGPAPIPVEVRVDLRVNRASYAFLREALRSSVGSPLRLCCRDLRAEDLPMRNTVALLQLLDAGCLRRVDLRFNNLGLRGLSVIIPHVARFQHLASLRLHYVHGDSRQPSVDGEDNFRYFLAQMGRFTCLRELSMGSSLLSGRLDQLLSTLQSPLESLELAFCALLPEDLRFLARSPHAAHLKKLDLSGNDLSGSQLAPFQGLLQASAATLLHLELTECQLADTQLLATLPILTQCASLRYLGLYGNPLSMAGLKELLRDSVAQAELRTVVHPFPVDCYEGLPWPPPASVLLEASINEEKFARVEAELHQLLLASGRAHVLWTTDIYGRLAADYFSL
UniProt Q5SW96: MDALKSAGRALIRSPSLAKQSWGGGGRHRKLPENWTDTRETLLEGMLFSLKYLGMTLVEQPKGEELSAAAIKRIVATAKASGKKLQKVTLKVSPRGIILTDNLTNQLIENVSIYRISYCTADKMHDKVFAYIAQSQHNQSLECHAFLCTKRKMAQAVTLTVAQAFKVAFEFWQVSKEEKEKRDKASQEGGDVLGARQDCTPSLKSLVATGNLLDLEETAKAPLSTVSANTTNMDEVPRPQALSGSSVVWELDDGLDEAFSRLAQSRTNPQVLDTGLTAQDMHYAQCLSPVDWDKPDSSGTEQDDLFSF
UniProt Q643R3: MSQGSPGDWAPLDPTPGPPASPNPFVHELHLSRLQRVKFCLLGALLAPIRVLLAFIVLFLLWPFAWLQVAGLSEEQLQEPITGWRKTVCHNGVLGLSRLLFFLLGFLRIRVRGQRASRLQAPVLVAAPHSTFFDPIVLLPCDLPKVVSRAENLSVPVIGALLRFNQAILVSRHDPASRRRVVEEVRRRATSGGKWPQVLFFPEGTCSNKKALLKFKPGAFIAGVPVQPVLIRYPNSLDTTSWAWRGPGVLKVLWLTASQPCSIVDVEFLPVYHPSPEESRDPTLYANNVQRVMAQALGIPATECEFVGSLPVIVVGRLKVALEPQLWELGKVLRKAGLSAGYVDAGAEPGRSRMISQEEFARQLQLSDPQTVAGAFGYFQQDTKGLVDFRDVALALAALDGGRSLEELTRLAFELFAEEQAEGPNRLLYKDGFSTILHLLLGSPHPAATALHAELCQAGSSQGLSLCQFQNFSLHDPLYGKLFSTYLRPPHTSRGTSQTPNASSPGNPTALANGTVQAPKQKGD
UniProt Q6P1M3: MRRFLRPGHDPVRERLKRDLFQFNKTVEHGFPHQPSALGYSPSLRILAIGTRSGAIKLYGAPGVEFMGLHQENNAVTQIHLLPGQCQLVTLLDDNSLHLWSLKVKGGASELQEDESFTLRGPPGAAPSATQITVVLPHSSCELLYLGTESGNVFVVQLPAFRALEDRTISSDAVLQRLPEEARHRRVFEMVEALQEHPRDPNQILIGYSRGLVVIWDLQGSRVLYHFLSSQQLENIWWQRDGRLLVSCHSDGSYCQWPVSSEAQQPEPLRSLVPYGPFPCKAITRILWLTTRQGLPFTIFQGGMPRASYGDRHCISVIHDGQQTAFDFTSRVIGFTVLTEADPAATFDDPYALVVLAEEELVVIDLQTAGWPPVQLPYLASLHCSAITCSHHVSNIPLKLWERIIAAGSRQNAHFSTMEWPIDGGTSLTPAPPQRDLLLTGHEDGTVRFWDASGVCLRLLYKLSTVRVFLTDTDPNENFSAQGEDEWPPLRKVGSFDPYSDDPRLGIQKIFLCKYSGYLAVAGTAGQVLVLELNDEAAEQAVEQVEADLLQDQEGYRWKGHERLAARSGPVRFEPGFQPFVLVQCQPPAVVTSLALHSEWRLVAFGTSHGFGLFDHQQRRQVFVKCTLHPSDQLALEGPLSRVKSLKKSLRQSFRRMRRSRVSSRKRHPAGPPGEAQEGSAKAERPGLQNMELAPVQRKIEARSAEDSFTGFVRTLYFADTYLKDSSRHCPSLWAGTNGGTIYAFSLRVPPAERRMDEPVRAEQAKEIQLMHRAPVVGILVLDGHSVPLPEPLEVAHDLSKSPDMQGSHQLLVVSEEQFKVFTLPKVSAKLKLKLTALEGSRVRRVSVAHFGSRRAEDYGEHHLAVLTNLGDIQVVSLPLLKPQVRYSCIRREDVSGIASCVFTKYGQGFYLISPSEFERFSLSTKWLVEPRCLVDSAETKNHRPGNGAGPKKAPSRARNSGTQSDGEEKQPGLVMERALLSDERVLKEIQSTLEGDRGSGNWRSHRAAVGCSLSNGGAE
UniProt P48059, whole entry, looked up: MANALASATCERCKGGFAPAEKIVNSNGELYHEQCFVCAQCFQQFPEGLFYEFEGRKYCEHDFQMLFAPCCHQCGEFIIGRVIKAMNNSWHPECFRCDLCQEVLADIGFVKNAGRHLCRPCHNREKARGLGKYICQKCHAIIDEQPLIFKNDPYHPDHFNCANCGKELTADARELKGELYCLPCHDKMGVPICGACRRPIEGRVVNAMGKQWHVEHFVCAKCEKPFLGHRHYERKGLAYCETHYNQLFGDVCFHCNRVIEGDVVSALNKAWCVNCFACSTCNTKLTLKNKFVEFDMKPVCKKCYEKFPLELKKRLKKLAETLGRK
UniProt Q3ZCW2: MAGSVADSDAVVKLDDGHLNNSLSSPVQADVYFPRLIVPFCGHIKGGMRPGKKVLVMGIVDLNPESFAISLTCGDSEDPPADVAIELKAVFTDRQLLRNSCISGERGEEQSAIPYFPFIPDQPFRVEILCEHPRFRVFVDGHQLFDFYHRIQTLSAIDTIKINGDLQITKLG
UniProt O95214: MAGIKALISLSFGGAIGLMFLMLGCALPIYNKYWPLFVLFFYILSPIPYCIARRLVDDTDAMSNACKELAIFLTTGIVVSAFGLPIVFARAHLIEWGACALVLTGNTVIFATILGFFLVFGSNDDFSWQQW
UniProt P61968: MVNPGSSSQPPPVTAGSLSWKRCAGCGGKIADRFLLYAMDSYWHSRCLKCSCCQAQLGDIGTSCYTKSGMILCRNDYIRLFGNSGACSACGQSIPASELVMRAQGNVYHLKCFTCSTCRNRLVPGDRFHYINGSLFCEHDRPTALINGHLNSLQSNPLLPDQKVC
UniProt P13473: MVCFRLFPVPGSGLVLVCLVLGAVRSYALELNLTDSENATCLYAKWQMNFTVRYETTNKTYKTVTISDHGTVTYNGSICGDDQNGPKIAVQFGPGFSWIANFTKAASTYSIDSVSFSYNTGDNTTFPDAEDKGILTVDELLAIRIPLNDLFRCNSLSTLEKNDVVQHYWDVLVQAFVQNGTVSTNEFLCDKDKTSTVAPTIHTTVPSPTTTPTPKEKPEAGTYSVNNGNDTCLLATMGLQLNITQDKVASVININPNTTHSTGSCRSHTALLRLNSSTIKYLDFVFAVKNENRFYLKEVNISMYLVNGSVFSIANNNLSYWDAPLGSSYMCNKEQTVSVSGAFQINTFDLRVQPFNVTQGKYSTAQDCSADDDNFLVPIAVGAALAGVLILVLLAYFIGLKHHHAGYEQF
UniProt Q9BQD3: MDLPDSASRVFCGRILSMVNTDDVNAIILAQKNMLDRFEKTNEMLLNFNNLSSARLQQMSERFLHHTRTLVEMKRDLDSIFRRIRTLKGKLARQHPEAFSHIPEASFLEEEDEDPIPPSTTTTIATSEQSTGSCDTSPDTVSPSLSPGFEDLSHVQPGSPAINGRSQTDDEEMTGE
UniProt P17931, whole entry, looked up: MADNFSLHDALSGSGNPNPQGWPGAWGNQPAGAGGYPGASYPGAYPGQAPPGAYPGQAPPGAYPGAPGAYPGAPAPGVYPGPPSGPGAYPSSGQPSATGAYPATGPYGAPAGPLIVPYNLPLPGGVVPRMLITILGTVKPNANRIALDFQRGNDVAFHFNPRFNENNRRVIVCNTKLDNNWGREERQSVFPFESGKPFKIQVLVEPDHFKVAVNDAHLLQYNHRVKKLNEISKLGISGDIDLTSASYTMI
UniProt Q13571: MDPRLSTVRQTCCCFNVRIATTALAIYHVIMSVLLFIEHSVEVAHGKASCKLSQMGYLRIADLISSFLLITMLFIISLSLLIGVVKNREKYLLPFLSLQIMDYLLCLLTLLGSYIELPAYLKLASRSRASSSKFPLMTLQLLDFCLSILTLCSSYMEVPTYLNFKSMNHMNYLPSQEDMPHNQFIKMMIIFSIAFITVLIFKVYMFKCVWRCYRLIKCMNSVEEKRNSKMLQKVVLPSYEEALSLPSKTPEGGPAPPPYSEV
UniProt Q9Y546: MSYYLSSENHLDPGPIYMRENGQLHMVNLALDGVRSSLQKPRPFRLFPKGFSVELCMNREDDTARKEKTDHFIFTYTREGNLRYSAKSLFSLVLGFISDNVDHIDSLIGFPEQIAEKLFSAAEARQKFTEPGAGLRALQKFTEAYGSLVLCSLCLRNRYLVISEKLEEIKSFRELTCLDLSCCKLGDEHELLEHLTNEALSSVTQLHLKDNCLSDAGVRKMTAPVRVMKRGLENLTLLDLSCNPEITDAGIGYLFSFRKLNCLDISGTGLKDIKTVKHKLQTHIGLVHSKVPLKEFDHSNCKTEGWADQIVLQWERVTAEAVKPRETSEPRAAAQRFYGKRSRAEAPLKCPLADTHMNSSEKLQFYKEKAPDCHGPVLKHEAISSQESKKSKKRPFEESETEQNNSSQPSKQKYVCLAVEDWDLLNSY
UniProt Q12912: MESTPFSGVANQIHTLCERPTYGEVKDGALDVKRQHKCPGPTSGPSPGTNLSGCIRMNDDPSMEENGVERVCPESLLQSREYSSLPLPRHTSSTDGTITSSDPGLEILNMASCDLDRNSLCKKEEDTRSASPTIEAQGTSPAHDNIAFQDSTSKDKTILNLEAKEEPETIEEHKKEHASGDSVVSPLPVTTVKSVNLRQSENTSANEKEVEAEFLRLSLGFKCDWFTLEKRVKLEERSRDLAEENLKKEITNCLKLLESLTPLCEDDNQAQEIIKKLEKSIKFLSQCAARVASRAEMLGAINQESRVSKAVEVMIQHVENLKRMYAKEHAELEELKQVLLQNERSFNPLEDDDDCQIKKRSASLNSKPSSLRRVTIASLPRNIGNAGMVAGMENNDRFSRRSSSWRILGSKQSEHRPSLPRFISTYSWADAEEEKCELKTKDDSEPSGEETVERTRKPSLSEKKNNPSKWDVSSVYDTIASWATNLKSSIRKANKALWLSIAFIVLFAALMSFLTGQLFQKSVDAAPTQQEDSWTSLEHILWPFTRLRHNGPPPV
UniProt Q53QV2: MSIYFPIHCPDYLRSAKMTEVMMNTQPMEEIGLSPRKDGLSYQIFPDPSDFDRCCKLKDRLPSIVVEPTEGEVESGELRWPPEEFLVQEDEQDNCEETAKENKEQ

compound: Cc1ccc(-n2nc(C(C)(C)C)cc2NC(=O)Nc2ccc(OCCN3CCOCC3)c3ccccc23)cc1 [doramapimod]; test: log2 fold change, soluble protein after heating vs DMSO (PISA); higher = thermal stabilisation; K562 cells, 10 uM, 30 min; active = over 0.2 and 3.5 SD of the protein, either way, in both replicates (recomputed)
Method in brief: (§1)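 Values are thermal stability changes relative to control samples and are taken from duplicates. They are stated as log2 fold changes. Before quantification by TMTpro 16plex LC-MS/MS with equalised channel sums, K562 cells at 2×10^6 cells/mL were treated with 10 μM compound for 30 min, heated in aliquots for 3 min across 48°C-58°C, pooled, extracted in PBS with 0.5% NP-40 at 4°C, and centrifuged at 21,000xg for 90 min to give the soluble supernatant.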

Row | Target | log2 fold change
1 | L1TD1 (UniProt Q5T7N2) | inactive: 0.149
2 | LRRC14 (UniProt Q15048) | inactive: -0.017
3 | LDLRAP1 (UniProt Q5SW96) | inactive: 0.18
4 | LPCAT4 (UniProt Q643R3) | inactive: -0.13
5 | LLGL2 (UniProt Q6P1M3) | inactive: 0.241
6 | LIMS1 (UniProt P48059) | inactive: 0.084
7 | LGALSL (UniProt Q3ZCW2) | inactive: 0.163
8 | LEPROTL1 isoform 2 (UniProt O95214) | inactive: 0.141
9 | LMO4 (UniProt P61968) | inactive: 0.008
10 | LAMP2 isoform 2 (UniProt P13473) | inactive: 0.002

compound: Cc1ccc(C(=O)N(CCCN)[C@@H](c2nc3cc(Cl)ccc3c(=O)n2Cc2ccccc2)C(C)C)cc1 [ispinesib]; test: as above
Method in brief: as §1

Row | Target | log2 fold change
11 | KXD1 (UniProt Q9BQD3) | inactive: -0.078
12 | LGALS3 (UniProt P17931) | inactive: -0.193
13 | LAPTM5 (UniProt Q13571) | inactive: -0.164
14 | LRRC42 (UniProt Q9Y546) | inactive: -0.043
15 | LDLRAP1 (UniProt Q5SW96) | inactive: -0.088
16 | LRMP (UniProt Q12912) | inactive: -0.137
17 | LLGL2 (UniProt Q6P1M3) | inactive: -0.123
18 | LAMB2 (UniProt P55268) | inactive: -0.275
19 | LEPROTL1 isoform 2 (UniProt O95214) | inactive: -0.492
20 | LMO4 (UniProt P61968) | inactive: 0.172
21 | LARP1B, A0A3B3ISF0 | inactive: -0.161
22 | LBH (UniProt Q53QV2) | inactive: 0.09
